Measurements published in the supplement of paper PMC10849652.
The other results are listed elsewhere or left out.

Protein sequences, listed by entry. Tags and fused reporters are not part of them. Lines headed by an entry give the natural chain unless they say otherwise; changes in a name come on top.
UniProt Q9BQD3: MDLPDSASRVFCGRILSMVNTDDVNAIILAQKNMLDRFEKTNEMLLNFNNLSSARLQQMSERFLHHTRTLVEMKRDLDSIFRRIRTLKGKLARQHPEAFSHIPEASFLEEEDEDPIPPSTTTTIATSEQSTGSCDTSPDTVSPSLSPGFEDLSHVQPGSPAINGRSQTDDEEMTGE
UniProt Q8N6L1: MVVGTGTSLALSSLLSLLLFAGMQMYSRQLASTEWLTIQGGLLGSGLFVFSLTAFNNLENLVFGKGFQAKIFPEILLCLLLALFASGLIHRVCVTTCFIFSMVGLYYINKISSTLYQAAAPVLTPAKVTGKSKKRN
UniProt Q53H82: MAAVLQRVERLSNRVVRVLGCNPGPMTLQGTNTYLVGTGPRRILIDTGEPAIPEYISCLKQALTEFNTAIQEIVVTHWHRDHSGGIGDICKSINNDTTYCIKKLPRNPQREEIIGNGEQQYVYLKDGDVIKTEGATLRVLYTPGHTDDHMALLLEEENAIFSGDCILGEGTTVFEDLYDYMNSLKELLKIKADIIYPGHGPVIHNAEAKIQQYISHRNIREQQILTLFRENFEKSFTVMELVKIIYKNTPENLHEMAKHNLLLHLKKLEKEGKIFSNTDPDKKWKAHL
UniProt P23276: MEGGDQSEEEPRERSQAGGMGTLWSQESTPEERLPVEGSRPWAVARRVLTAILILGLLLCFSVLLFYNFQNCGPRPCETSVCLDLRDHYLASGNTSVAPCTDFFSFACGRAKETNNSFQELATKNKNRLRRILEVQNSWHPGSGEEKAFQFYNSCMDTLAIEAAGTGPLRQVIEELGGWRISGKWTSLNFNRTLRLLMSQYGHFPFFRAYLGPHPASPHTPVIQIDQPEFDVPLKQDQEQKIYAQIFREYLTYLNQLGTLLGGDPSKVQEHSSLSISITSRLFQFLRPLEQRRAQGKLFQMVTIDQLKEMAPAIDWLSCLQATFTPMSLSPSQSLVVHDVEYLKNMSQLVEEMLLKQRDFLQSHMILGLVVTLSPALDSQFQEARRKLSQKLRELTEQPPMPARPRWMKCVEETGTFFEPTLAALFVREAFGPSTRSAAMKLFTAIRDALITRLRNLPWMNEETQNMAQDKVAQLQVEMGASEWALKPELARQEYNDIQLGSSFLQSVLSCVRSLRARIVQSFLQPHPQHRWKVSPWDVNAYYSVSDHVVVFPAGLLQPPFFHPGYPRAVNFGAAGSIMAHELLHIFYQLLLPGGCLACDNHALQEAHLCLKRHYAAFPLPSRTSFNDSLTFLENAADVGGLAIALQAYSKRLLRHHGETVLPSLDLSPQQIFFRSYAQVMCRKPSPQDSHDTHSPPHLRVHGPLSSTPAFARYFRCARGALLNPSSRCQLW
UniProt Q96A73: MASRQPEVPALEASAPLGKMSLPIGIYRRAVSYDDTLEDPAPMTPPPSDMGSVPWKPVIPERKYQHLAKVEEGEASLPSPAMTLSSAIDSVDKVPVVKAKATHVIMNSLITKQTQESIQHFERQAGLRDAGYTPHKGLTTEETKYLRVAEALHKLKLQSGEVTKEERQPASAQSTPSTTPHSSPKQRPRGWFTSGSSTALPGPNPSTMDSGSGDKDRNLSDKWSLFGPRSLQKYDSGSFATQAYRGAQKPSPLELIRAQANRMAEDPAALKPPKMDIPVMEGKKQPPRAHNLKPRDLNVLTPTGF
UniProt Q9UN81: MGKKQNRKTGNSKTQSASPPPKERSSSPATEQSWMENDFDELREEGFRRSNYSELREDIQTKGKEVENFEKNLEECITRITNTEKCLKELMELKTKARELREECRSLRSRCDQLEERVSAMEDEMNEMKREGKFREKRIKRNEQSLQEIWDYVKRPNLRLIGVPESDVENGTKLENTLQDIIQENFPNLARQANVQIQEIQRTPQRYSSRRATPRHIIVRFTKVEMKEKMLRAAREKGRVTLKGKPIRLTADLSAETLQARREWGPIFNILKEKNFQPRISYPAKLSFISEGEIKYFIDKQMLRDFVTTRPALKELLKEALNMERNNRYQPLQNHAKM
UniProt O14782: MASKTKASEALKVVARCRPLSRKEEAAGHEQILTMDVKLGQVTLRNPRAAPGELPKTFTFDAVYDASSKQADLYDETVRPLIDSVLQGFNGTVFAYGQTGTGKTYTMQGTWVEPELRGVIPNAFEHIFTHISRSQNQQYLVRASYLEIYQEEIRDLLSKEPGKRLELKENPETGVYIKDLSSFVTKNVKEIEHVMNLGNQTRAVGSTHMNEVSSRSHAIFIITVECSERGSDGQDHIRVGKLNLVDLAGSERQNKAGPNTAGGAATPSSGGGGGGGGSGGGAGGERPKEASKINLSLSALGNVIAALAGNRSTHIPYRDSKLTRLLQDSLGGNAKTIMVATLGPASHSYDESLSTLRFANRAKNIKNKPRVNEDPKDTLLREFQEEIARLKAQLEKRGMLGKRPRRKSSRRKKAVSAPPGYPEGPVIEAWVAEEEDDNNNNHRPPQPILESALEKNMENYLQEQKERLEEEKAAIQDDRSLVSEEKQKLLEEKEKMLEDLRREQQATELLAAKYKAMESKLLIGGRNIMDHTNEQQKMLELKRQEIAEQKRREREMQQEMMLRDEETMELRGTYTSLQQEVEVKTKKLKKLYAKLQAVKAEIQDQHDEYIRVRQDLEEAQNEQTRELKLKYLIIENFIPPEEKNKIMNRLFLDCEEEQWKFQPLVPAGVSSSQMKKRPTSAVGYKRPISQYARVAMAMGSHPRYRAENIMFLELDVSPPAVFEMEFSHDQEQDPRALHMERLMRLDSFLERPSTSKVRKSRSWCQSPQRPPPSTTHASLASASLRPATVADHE
UniProt Q15058: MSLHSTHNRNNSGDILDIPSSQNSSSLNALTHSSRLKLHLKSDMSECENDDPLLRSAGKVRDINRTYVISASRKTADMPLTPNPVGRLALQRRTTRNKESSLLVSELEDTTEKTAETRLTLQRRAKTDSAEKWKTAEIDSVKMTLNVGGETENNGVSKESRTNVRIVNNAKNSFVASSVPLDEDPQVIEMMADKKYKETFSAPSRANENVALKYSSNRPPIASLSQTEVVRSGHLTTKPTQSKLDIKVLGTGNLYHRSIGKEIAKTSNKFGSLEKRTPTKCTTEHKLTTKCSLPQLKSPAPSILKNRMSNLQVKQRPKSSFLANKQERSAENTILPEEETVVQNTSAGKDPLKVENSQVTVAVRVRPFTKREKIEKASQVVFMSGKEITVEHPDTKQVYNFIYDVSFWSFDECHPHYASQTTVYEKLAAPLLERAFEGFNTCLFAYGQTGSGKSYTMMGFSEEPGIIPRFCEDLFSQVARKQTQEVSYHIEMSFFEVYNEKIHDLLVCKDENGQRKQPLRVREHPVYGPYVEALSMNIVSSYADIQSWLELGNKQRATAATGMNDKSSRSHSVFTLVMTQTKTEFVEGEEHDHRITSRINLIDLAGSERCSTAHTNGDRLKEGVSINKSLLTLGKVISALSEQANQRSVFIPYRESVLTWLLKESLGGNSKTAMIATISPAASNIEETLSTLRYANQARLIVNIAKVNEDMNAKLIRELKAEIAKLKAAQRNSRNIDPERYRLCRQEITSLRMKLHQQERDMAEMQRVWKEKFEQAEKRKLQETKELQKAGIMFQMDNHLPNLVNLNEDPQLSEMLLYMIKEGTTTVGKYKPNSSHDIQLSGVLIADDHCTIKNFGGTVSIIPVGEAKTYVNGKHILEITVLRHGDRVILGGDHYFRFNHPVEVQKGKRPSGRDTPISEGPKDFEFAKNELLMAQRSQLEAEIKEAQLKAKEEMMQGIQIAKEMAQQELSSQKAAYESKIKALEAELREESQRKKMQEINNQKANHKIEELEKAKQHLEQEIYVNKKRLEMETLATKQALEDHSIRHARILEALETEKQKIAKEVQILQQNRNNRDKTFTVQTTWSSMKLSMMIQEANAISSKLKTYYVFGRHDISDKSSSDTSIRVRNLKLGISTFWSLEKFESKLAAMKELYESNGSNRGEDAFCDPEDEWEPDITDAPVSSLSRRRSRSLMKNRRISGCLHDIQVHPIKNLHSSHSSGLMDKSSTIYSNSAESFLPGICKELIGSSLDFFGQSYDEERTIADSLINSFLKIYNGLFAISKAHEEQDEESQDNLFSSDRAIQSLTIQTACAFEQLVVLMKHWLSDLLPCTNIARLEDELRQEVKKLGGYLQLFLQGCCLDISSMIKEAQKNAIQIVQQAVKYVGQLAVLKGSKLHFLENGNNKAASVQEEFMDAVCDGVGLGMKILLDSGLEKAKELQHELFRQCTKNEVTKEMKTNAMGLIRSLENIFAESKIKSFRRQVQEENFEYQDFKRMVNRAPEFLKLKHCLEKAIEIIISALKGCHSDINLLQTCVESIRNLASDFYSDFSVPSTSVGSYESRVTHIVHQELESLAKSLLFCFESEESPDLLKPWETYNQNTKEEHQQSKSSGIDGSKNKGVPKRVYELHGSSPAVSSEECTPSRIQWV
UniProt Q7Z4S6: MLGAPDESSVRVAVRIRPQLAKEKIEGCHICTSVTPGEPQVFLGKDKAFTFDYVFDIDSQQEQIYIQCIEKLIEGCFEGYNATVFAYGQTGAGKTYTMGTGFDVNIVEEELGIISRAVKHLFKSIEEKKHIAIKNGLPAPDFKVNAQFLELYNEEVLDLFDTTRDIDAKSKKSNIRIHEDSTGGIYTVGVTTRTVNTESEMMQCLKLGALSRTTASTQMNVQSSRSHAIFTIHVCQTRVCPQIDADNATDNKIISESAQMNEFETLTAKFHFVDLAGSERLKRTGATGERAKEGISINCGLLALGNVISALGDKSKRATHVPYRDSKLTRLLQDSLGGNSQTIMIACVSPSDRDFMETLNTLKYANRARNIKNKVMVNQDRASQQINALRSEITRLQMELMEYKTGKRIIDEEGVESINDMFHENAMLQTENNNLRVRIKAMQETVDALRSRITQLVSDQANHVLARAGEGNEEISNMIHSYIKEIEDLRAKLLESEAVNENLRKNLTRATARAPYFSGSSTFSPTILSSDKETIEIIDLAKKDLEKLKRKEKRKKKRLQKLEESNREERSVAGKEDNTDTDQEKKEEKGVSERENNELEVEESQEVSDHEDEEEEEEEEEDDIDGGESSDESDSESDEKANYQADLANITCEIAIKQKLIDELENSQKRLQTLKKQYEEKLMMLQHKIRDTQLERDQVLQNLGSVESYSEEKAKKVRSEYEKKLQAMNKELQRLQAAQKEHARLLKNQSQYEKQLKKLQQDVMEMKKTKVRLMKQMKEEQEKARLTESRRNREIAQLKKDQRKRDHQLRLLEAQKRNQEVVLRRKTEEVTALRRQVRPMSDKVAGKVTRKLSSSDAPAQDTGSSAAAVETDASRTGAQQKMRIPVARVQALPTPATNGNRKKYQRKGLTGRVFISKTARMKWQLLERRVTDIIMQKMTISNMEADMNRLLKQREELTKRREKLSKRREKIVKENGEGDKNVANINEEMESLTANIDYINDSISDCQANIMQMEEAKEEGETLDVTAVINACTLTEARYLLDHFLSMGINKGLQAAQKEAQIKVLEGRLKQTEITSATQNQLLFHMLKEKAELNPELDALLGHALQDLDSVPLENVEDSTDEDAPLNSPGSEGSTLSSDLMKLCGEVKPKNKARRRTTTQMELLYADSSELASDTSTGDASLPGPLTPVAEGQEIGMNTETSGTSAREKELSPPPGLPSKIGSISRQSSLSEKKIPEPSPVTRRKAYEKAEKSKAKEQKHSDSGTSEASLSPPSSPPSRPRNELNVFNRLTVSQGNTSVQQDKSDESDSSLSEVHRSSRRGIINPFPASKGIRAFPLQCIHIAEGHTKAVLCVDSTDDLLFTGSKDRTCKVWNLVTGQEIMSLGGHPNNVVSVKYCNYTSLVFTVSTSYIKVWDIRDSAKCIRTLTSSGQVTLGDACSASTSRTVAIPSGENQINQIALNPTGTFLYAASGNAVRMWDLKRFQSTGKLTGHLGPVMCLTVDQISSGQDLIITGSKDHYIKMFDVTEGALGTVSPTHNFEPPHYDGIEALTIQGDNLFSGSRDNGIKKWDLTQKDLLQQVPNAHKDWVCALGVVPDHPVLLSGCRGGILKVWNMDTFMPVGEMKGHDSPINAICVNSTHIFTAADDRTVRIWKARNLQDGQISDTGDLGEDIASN
UniProt Q6YP21: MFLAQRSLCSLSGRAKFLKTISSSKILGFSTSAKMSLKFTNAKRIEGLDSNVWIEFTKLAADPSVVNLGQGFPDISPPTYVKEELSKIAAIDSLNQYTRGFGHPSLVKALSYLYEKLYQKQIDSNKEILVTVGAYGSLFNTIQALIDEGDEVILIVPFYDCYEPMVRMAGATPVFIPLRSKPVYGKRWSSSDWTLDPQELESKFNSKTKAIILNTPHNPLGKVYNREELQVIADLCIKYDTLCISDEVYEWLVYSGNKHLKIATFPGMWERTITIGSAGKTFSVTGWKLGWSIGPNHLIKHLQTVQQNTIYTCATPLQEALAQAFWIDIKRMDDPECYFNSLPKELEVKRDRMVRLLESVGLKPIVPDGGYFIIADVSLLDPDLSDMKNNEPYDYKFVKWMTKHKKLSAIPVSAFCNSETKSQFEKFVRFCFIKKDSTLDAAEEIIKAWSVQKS

Compound: Cc1cn(-c2cc(NC(=O)c3ccc(C)c(Nc4nccc(-c5cccnc5)n4)c3)cc(C(F)(F)F)c2)cn1 [nilotinib]
Assay: log2 fold change, soluble protein after heating vs DMSO (PISA); higher = thermal stabilisation; K562 lysate, 10 uM; active = over 0.2 and 3.5 SD of the protein, either way, in both replicates (recomputed)
Summary of the method: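 Following dounce homogenisation of K562 pellets in PBS pH 7.4 with 1 mM MgCl2, crude extract at 1 mg/mL protein was incubated for 30 min with 10 μM compound. Aliquots were then heated for 3 min over 48°C-58°C and pooled, NP-40 was added to 0.5% at 4°C, and soluble protein was recovered as the supernatant at 21,000xg for 90 min. Channel-sum-equalised TMTpro 16plex LC-MS/MS quantified this protein. Each value, from duplicates, is a log-two fold change in thermal stability relative to solvent controls.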

log2 fold change, inactive:
KIF11 (UniProt P52732) -0.016
LARP1 (UniProt Q6PKG0) 0.005
KXD1 (UniProt Q9BQD3) 0.055
KLHL7 (UniProt Q8IXQ5) -0.006
KLHL26 (UniProt Q53HC5) 0.087
KIF5A (UniProt Q12840) -0.001
KRTCAP2 isoform 2 (UniProt Q8N6L1) -0.023
LACTB2 (UniProt Q53H82) -0.011
KEL (UniProt P23276) -0.112
KIAA1191 (UniProt Q96A73) 0.003
KPNB1 (UniProt Q14974) 0.006
L1RE1 (UniProt Q9UN81) -0.029
KIF3C (UniProt O14782) -0.038
KRAS (UniProt P01116) 0.034
KIF14 (UniProt Q15058) 0.003
LAMTOR4 (UniProt Q0VGL1) 0.093
KIF21A isoform 5 (UniProt Q7Z4S6) 0.011
KIF4B (UniProt Q2VIQ3) -0.016
KLHL42 (UniProt Q9P2K6) 0.003
KYNU (UniProt Q16719) -0.044
LARP1B, A0A3B3ISF0 0.035
KNSTRN (UniProt Q9Y448) 0.012
KYAT3 (UniProt Q6YP21) 0

Looked up one by one from the list above:
log2 fold change, inactive:
KIF21A isoform 5 (UniProt Q7Z4S6) 0.011
KPNB1 (UniProt Q14974) 0.006
